Results as given in patent US20230270893A1, “GALLIUM-LABELED GASTRIN ANALOGUE AND USE IN A METHOD OF IMAGING CCKB-RECEPTOR-POSITIVE TUMORS OR CANCERS” (DEBIOPHARM INTERNATIONAL S.A., priority 2020, published 2023).
Not every detail of the peptide structures is certain; ends, links or a residue may be inferred.

Molecular target: T1, CCK2R (Mus musculus, UniProt P56481)
T1 construct: from tissue; host or cells: organs of naive CD1 mice (stomach and others), in vivo injection with ex vivo gamma counting
T1 sequence (P56481 1-453): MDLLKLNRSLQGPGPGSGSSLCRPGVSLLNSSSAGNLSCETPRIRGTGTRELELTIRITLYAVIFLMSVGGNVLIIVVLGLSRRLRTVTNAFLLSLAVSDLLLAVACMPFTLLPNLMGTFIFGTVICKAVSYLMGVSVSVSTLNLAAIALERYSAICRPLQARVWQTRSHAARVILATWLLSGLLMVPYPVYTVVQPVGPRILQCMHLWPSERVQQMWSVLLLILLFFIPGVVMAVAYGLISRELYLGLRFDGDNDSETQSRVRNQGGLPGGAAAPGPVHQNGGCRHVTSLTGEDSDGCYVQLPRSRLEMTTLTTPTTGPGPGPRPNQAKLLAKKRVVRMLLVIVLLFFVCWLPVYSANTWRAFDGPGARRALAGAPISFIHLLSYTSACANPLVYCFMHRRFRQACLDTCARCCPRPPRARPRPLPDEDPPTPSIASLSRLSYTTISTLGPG
Assay: Peptide blocking experiment (co-injection of blocking dose of PPF11N) in the ex vivo biodistribution study
Parameters: species or system CD1 mice
Conditions: stomach
Experimental: Ex vivo biodistribution study. Female (FIG. 1A) and male (FIG. 1B) naïve adult CD1 mice (immunocompetent) were injected with [^68Ga]Ga-PPF11N ((0.19±0.04) MBq, 0.04 μg, 1.3 μg/kg). Mice were sacrificed at 5, 15, 30, 60, 120 and 240 min post-injection (N=4 each). A control group of mice of each sex was co-injected with a blocking dose of PPF11N peptide (40 μg, 1.3 mg/kg) and sacrificed at 60 min post-injection. Organs (blood, bone, brain, colon, gonad, kidney, liver, lung, muscle, pancreas, stomach) were weighted and assessed for activity concentration over time. Ex vivo biodistribution in all resected tissues was computed as the percentage of injected dose per gram of tissue (% ID/g).
Immunocompetent CD1 mice (N=28 males and N=28 females on study, N=3 males and N=3 females spare; males 9 weeks old, females 5 weeks old at delivery) were acclimatized for 7 days, inspected daily and weighed on the day of injection. […]
The activity of each collected tissue was measured in units of counts per min (CPM). […] Measured values were decay corrected and adjusted to account for background radiation

CCCC[C@H](NC(=O)[C@H](Cc1c[nH]c2ccccc12)NC(=O)CNC(=O)[C@H](Cc1ccc(O)cc1)NC(=O)[C@H](C)NC(=O)[C@@H](CCC(=O)O)NC(=O)[C@@H](CCC(=O)O)NC(=O)[C@@H](CCC(=O)O)NC(=O)[C@@H](CCC(=O)O)NC(=O)[C@@H](CCC(=O)O)NC(=O)[C@@H](CCC(=O)O)NC(=O)CN1CCN(CC(=O)O)CCN(CC(=O)O)CCN(CC(=O)O)CC1)C(=O)N[C@@H](CC(=O)O)C(=O)N[C@@H](Cc1ccccc1)C(N)=O [^68Ga-PPF11N, ^68Ga-Y-DGlu-DGlu-DGlu-DGlu-DGlu-DGlu-Ala-Tyr-Gly-Trp-Nle-Asp-Phe-NH2, metal not drawn]
Specificity of binding to CCK2R receptors: specific
